Source: PubChem BioAssay AID1347423 (Functional Genomics Laboratory (NCATS/FGL), 2020)
Hit rate of the full screen: of about 52,000 sequences, about 210 (0.4%) were called active.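 The calls were made as follows: active = gene whose silencing raises cell survival under the drug, median off-target-corrected z-score across its silencing RNAs 2 or more; inactive = the rest.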 The list shows a part of the results.

Assay: Resistance to Poly (ADP-Ribose) Polymerase inhibitor: Gene Identification via Genome-wide siRNA Screen
Conditions: mouse BRCA2 R2336H ES cells, olaparib, CellTiter-Glo viability; stronger effect = higher value
Procedure, shortened: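 Mouse BRCA2 R2336H ES cells were reverse-transfected with siRNA (20 nM final), treated at 48 h with 500 nM olaparib, and read by CellTiter-Glo after 72 h. Scores: MAD-based z per siRNA, median per gene, seed off-target correction.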

| Sequence | z-score |
| --- | --- |
| GGUCUGAUCAAGGCUGCCATT against Trpm1 | inactive: 1.66 |
| CCCUAUGCAGGGCUCAAUATT against 9930020N01Rik | inactive: 1.75 |
| GAAGCUUUGUGAUGGAUUATT against Ccl4 | inactive: 1.53 |
| GCAUGGAUAGAUAAUUCAATT against Atp5a1 | inactive: 1.15 |
| GGCAAUGUCUUCUCCAAUATT against Dedd | inactive: -1.14 |
| CCUGAUAUUCCAUCCUGAATT against 2410021P16Rik | inactive: 0.543 |
| GGUCCUAGUUAAUUUCACUTT against Ipmk | inactive: -1.29 |
| GGGUUCCCUGAAAUGUUAGTT against Atic | inactive: -0.321 |
| CCAAACACAUUUUAUUCCATT against Slamf7 | inactive: 2.49 |
| GGUGCUAAAGGACAUAGGUTT against 2300008B03Rik | inactive: 0.787 |
| GGAAACUGGUAACUGAUGATT against Acp1 | inactive: -1.24 |
| GGCCUAAGUAAACACAAAATT against Zfp307 | inactive: 0.00636 |
| GGUUGCUCAAGAAACAGACTT against Rad50 | inactive: -0.253 |
| GGCUAGAUGACAACCGCAUTT against Flrt1 | inactive: -0.0796 |
| CCAGGAUUCGGACAAAACUTT against 2810013M15Rik | inactive: -1.16 |
| GCAAGAAACAUUAGCGAAUTT against Dapk1 | inactive: 1.31 |
| CGAGAGUCAGCUAUUAAUGTT against Stoml2 | inactive: -0.456 |
| CCCUCAUAACUAAUGCUGUTT against Pip5kl1 | inactive: 0.251 |
| CCGGUUAGCUCAGUAUGACTT against AI452372 | inactive: 0.189 |
| GCGACAGAGGAAGCUUGUUTT against 2600016B03Rik | inactive: -2.87 |
| CCCAAGAAUUCAAAUCCUATT against Rgr | inactive: 0.468 |
| GGAUGGACCGGAGACAACUTT against Brs3 | inactive: -0.681 |
| GGUGUUGUGGAAUAUUUAATT against Cnot6l | inactive: 1.95 |
| GGUCCAGAGUUAUGAUUUGTT against 4833420N02Rik | inactive: 0.477 |
| GGUGUAAGAACUUCAAGUUTT against Tlr9 | inactive: 0.202 |
| GGAUAGAGACUGAUGCUCATT against Eat2 | inactive: -0.217 |
| GGUCAACAACCUCAUCUGCTT against Lhx6 | inactive: 0.105 |

| Sequence | z-score |
| --- | --- |
| GGAAGAACUUCUGUUCAUGTT against Krt1-18 | inactive: -0.483 |
| GGAGGGUACUCACAGGAAATT against Olfr411 | inactive: -1.4 |
| GGUUAAAUCCCUGAUGUAUTT against Ptdss1 | inactive: -0.928 |
| GCCUAGCUGAAAACGUGUCTT against Cog4 | inactive: 0.255 |
| CCUCAAUGAGAGUCUAAUGTT against Olfr97 | inactive: -2.45 |
| CGCAGUGUGUCUCAUUUAATT against Anxa5 | inactive: 0.256 |
| GCUAGCCGUGUUUUCUAUUTT against Twist2 | inactive: 0.873 |
| GCAGGAUUGAAACAUGUAUTT against Tcl1b3 | inactive: 0.892 |
| GCCUAUCUUGUCACCACUGTT against Tagln2 | inactive: 0.407 |
| GGGAAAGCCAUCCUUCACUTT against BC030476 | inactive: 0.0613 |
| GGAAUCAUUUGUUCCCAACTT against Lpl | inactive: 1.36 |
| GGUGAACUUGUGUCUCACUTT against D16H22S680E | inactive: 0.631 |
| GGAGAUCACAUGUUUUUUUTT against Keap1 | inactive: 1.33 |
| GGUCUAUGAAGAGAAGACUTT against 1700021F05Rik | inactive: 1.43 |
| GGAAAAGAUUGACAUCUGCTT against Jrk | inactive: 0.125 |
| CCUGGAACUUGUUGGAAGCTT against Igsf3 | inactive: 1.86 |
| GGAUGUUACUCCCUCAAAUTT against 4930511M11Rik | inactive: 1.32 |
| CGUUACGUAAAUCUUGUGATT against Sstr2 | inactive: 0.0885 |
| GCUGCAUAGACUCAUGGUUTT against Znrf1 | inactive: 0.16 |
| GUACCUGAAUUGCUACCGATT against Ly6g5c | inactive: 3.1 |
| CCAUCCGGGAAAAAAUCAATT against Cdk5rap3 | inactive: -0.0314 |
| CCAUUUCCCAUUUCUGAAGTT against 1700001P01Rik | inactive: 0.97 |
| UCAUUAGUAUCCUCCGUAUTT against Olfr919 | inactive: -1.25 |
| GGCAUCUUCCUGAAAAAGCTT against Mybpc2 | inactive: 0.0738 |
| GGAGUAUGUGCAAUAUAAATT against Asb15 | inactive: 1.02 |
| GGCAUGUUCUGGGCAGAUGTT against Resp18 | inactive: -0.839 |
| CCAGAAACAUACGAAGAUUTT against Khdrbs1 | active: 2.31 |

| Sequence | z-score |
| --- | --- |
| GGGAAAACAGAAGAGUUUGTT against Sh2bp1 | inactive: -1.01 |
| GGCGCAUAUGUAGCACCUATT against Egfl8 | inactive: 0.389 |
| GGCCUAUCUCAUCUAUUUCTT against Ptpru | inactive: 0.662 |
| CCUUGAGCACAUCUGCUUGTT against Serpina3k | inactive: 1.05 |
| GGACUAUCAGGACCUUUUUTT against Dnajb3 | inactive: -1.77 |
| CCAUCUCCUUCAUUCUGUGTT against Olfr444 | inactive: -1.82 |
| GGUCAAGAAAUGGAAGCUGTT against Dos | inactive: 1.91 |
| GGGAAACUCUUUGAAGAUATT against Lsm5 | inactive: -2.47 |
| GGCUUUAGCAGAUGAGCGATT against Spnb4 | inactive: -1.66 |
| GCUUUUUACAGGAUAUACATT against D5Ertd689e | inactive: -0.521 |
| AAACAGUCAUUUCCUAUAGTT against Olfr1502 | inactive: 0.0448 |
| GGAAUUUGUCAGGUUCCAATT against Grik4 | inactive: -0.42 |
| GGAGUUUGUAACCCUCCUGTT against Cabp7 | inactive: 0.724 |
| GGCAGAAGUUGGAAGAAAUTT against Tap1 | inactive: -0.612 |
| CGCAAGUAUUUCCACCAUATT against Clk4 | inactive: 0.706 |
| GGACAGAUUUGUGAAUGAUTT against Rcn2 | inactive: -1.24 |
| GCUUACGUAGGAAAUCUCCTT against Wbscr1 | inactive: 0.231 |
| GCAGCCCACUCAUAUGAAATT against Homez | inactive: 1.3 |
| GCUUGUCUACUAUUUCACATT against 1700067C01Rik | inactive: -0.127 |
| GGUGAGUGAUCUUCAGAACTT against Snx13 | inactive: 0.227 |
| GGAGGAAAAGGCUUUUCGATT against 1700112P19Rik | inactive: -1.09 |
| GGAGAAAGCUUACUGCCUUTT against Lrrc6 | inactive: -0.628 |
| GCCAUCGAUACCACAACACTT against Slfn8-pending | inactive: 0.928 |
| CCGUCAUCACUGAUCAGUUTT against Olfr684 | inactive: -0.243 |
| GGUCAAGUAACAUGGUUUGTT against MGC68340 | inactive: 1.19 |
| GGACUUUCUUAACUACACUTT against Slc2a3 | inactive: -1.41 |
| CCCAUAGAACAUCUUAAAATT against Ifi202b | inactive: 0.205 |

7 records drawn at random from the list so far:

| Sequence | z-score |
| --- | --- |
| GGUGCUAAAGGACAUAGGUTT against 2300008B03Rik | inactive: 0.787 |
| GGAGGGUACUCACAGGAAATT against Olfr411 | inactive: -1.4 |
| GCGACAGAGGAAGCUUGUUTT against 2600016B03Rik | inactive: -2.87 |
| CCAUCCGGGAAAAAAUCAATT against Cdk5rap3 | inactive: -0.0314 |
| CCAAACACAUUUUAUUCCATT against Slamf7 | inactive: 2.49 |
| CGCAGUGUGUCUCAUUUAATT against Anxa5 | inactive: 0.256 |
| GCCAUCGAUACCACAACACTT against Slfn8-pending | inactive: 0.928 |

Next entries:

| Sequence | z-score |
| --- | --- |
| GGACAAGUUUGAAUUUGACTT against Usp5 | inactive: -2.09 |
| CCAGUAUUCAUGUAAAUGGTT against Crbn | inactive: 0.0719 |
| GGCUAAGAAACUGAAGAGATT against BC020535 | inactive: -1.26 |
| CGUGAACAUUUCCUACAUATT against LOC13909 | inactive: -0.468 |
| GCUUACCCUCUCCUAAAUUTT against 0610012K18Rik | inactive: 0.737 |
| CGAUGCUGUGGAACUGCACTT against Ptgfrn | inactive: 1.75 |
| GGAUCAAUUCUAGAAUCAGTT against Runx3 | inactive: 0.347 |
| GGGUGUGAAGGAGUUCAAGTT against 5430400N05Rik | inactive: 0.297 |
| GGAAUUCCUCUGUAUGAAATT against Pgr | inactive: 0.327 |
| GGAGUAUGGCGAAUUCUAUTT against Hspcb | inactive: -0.15 |
| CGUCUUUGCCCAUACACUCTT against A230052G05Rik | inactive: -1.63 |
| GCUCGAGAUCGAAACAUACTT against 4432412D15Rik | inactive: 1.68 |
| GCUCAAAUUGAGUCCUUAUTT against 4933415L06Rik | inactive: -1.63 |
| GGUUGAAUCCUAAGAAUGUTT against AA517853 | inactive: -1.17 |
| CCCAGAAGGAAUGGCUAAATT against 1700054O13Rik | inactive: 0.922 |
| GGGAGAGGUGUUACACCCUTT against Adamts10 | inactive: 0.0725 |
| GGGAGAUAGCCGAUAUAUCTT against Ebp | inactive: 1.99 |
| GGGAAAAGUGACAAUUGCUTT against Dusp8 | inactive: -2.31 |
| GAGCUCCUCUGCUUUCUCUTT against Ms4a6d | inactive: 0.127 |
| GGAUGACCAAGAAUGGGAATT against Dap | inactive: 0.0617 |
| GGAAGUCUCUAUCCUGAACTT against Tsp50 | inactive: -0.771 |
| CGUAAUACAAUCCAGUUCATT against Aqr | inactive: -2.58 |
| GGAACAACAUCCGUAUUGCTT against Brsk2 | inactive: 0.414 |
| GCUACCUGAAACACAGCAATT against Hes5 | inactive: 0.585 |

Laid out differently: results already given.
Sequence | z-score
GGAGGGUACUCACAGGAAATT against Olfr411 | inactive: -1.4
GGUUAAAUCCCUGAUGUAUTT against Ptdss1 | inactive: -0.928
